PubChem BioAssay AID1259254 | NCATS, 2017
Purpose: 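Finding genes that stop cells copying their DNA twice in one cycle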 (primary screen). Cell system: human HCT116 colorectal cancer cells. Reagent: single siRNA against human genes. Time to read-out: 3 days. Measurement: 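Imaged Hoechst DNA stain sorts each cell into a cycle phase by DNA amount; per plate, G2 fraction set to 0% for non-targeting and 100% for GMNN siRNA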. Reading the numbers: G2 robust z-score and G2 cells, % of GMNN control: higher = more G2 cells, more excess DNA replication. Hit rule: 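An siRNA counts as active if its G2 robust z-score lies at least 5 MADs above the screen median; here such calls match roughly 38% of GMNN control or more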.
The whole screen tested about 59,000 reagents; shown is a random part of them. About 1,550 of them (2.6%) count as active. 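G2 share is only a proxy for re-replication; each gene was hit by three separate siRNAs, and active genes were retested.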 A number with no mark means an inactive call. The numbers tell different reagents against one gene apart. Further read-outs or replicates are left out here. Not given: the amount of reagent.

DENND1A #1 — G2 robust z-score = -0.506; G2 cells, % of GMNN control = -0.589
DENND1A #2 — G2 robust z-score = 3.43; G2 cells, % of GMNN control = 27.1
DENND1A #3 — G2 robust z-score = -0.765; G2 cells, % of GMNN control = -2.41
UBE3B #1 — G2 robust z-score = -1.08; G2 cells, % of GMNN control = -4.62
UBE3B #2 — G2 robust z-score = -0.424; G2 cells, % of GMNN control = -0.0169
UBE3B #3 — G2 robust z-score = -0.9; G2 cells, % of GMNN control = -3.37
CHL1-AS2 #1 — G2 robust z-score = -0.891; G2 cells, % of GMNN control = -3.3
CHL1-AS2 #2 — G2 robust z-score = -0.264; G2 cells, % of GMNN control = 1.11
CHL1-AS2 #3 — G2 robust z-score = 2.63; G2 cells, % of GMNN control = 21.4
RASSF4 #1 — G2 robust z-score = 1.27; G2 cells, % of GMNN control = 11.9
RASSF4 #2 — G2 robust z-score = -0.639; G2 cells, % of GMNN control = -1.53
RASSF4 #3 — G2 robust z-score = -0.577; G2 cells, % of GMNN control = -1.09
COX11 #1 — G2 robust z-score = 0.867; G2 cells, % of GMNN control = 9.07
COX11 #2 — G2 robust z-score = -0.00305; G2 cells, % of GMNN control = 2.95
COX11 #3 — G2 robust z-score = 0.1; G2 cells, % of GMNN control = 3.67
IL32 #1 — G2 robust z-score = -0.355; G2 cells, % of GMNN control = 0.467
IL32 #2 — G2 robust z-score = -0.8; G2 cells, % of GMNN control = -2.66
IL32 #3 — G2 robust z-score = -0.954; G2 cells, % of GMNN control = -3.74

Entries listed so far whose gene name starts with D or d:
DENND1A #1 — G2 robust z-score = -0.506; G2 cells, % of GMNN control = -0.589
DENND1A #2 — G2 robust z-score = 3.43; G2 cells, % of GMNN control = 27.1
DENND1A #3 — G2 robust z-score = -0.765; G2 cells, % of GMNN control = -2.41
